Source: PMC10742089
No constants are given. Whether binding was seen depends on the method and setting. Binding seen in cells or lysates may run through a third protein. Some binding calls cover weakened binding; strength is not graded here.

Chains of the proteins cited; added tags and fusions are not shown.
UniProt Q13200: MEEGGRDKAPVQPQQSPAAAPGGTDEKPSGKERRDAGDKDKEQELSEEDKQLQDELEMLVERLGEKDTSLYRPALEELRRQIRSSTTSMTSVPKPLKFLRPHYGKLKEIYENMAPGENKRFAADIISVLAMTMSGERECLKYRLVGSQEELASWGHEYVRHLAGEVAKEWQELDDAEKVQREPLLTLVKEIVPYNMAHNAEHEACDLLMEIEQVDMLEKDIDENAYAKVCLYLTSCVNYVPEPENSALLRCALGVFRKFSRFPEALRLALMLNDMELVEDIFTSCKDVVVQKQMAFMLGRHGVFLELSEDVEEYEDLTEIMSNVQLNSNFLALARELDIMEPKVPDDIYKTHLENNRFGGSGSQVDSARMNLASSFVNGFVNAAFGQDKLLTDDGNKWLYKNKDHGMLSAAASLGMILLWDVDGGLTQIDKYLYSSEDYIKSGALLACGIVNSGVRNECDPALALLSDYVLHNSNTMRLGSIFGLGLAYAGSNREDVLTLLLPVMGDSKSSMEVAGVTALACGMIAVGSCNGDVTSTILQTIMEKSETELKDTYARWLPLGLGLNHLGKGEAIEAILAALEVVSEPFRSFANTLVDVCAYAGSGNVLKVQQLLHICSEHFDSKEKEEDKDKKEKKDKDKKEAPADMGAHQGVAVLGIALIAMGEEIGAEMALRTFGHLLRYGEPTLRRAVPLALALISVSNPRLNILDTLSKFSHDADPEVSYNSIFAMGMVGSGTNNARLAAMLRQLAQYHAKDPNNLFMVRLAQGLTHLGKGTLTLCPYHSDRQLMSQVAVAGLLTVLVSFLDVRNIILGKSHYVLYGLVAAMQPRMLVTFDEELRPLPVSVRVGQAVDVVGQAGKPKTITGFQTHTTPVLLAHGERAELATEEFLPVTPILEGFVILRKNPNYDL
UniProt Q15008: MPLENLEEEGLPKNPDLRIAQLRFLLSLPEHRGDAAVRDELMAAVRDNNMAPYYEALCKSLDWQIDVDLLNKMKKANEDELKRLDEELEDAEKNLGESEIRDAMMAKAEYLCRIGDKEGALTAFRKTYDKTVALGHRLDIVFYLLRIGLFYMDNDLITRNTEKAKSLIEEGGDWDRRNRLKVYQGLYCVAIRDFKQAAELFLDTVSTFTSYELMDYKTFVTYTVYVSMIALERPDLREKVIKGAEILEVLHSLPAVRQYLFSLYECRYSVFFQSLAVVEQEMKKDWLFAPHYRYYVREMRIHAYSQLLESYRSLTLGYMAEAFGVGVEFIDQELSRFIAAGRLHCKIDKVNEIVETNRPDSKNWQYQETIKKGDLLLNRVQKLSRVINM

Experiments:
GST-iso6 (human) [1] = molecular target: GST-iso6 (human) (UniProt Q06787); assay: pull-down; as the GST pull-down, with RNase A (10 ug/mL, 15 min at room temperature); only the target purified
[2] = molecular target: mEGFP-iso6 (FMRP nuclear isoform iso6 fused to GFP) (human) (UniProt Q06787); assay: co-IP; GFP-Trap agarose on lysate of U2OS stably expressing GFP-iso6, 2 h at 4 C, 150 mM NaCl, 0.5% NP-40 substitute; Western blot
GST-iso6 (human) [3] = molecular target: GST-iso6 (human) (UniProt Q06787); assay: pull-down; purified GST-iso6 or GST immobilised on glutathione agarose beads, incubated with U2OS total cell extract 1 h at 37 C, 150 mM NaCl, 0.5% NP-40 substitute; Western blot; only the target purified

Row | binding (GST-iso6 (human) [1]) | binding [2] | binding (GST-iso6 (human) [3]) | Substance
1 | binds | binds | binds | PSMD2 (from UniProt Q13200 1-908)
2 | binds | binds | binds | PSMD6 (from UniProt Q15008 1-389)
3 | – | – | binds | AURKB (from UniProt Q96GD4 1-344)
